{"sequences": {"note": "Protein sequences, listed by entry. Tags and fused reporters are not part of them.", "UniProt Q03135": "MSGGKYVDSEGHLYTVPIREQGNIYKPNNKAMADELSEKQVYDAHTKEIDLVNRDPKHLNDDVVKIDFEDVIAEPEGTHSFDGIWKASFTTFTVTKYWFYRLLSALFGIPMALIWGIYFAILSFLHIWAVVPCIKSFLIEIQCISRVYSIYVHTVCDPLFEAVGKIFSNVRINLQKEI"}, "source": "paper PMC9246916", "key": {"[1]": {"biological_target": "Caveolin-1 (human (endogenous in hAECs)) (UniProt Q03135)", "assay": "co-IP; endogenous proteins in lysates of hAECs exposed to silica (100 µg/ml, 72 h) or BLM (40 µg/ml, 24 h), with or without CSP7; IP by Cav1, blots for the partners; IP with non-specific IgG and inputs as controls"}, "[2]": {"biological_target": "Caveolin-1 (human (endogenous in hAECs)) (UniProt Q03135)", "assay": "condition: only hAECs treated with CSP7 (20 μM after silica, 10 μM after BLM); co-IP; as a1, silica- or BLM-injured hAECs treated with CSP7 (20 µM for the last 24 or 48 h of silica; 10 µM for the last 4 or 8 h of BLM) before lysis"}}, "note": "No constants are given. Whether binding was seen depends on the method and setting. Binding seen in cells or lysates may run through a third protein. Some entries that bind do so weakly or less than the wild type.", "data": [{"substance": "Sequestosome 1 (SQSTM1/p62) (from UniProt Q13501 1-440)", "values": [{"measurement": "binding", "setting": "[1]", "value": "binds"}, {"measurement": "binding", "setting": "[2]", "value": "no binding"}]}]}
